# Screen size: about 53,000 sequences; about 3,700 (7%) were called active.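 Rule for the calls: active = gene knockdowns whose robust z-score for IL-1 alpha signal is at least 2 or at most -2, so actives lie on both sides; inactive = the rest.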 The list shows a part of the results.
# Experiment: Components of the Cytosolic LPS Sensing Pathway: Gene Identification via Genome-wide siRNA Screen
# Details: RAW264.7 macrophages, IL-1a HTRF, actives lie on both sides, screened at 100 nM (by protocol), cells primed 5 h with Pam3CSK4 first
# Text: Non-canonical inflammasome activation by cytosolic LPS is a critical component of the host response to Gram-negative bacterial infection, however we lack a comprehensive understanding of the cellular processes that control this pathway. Here we describe a genome-wide siRNA screen to identify genes regulating the mouse macrophage IL-1 alpha response to cytosolic LPS.
# RAW264.7 cells were maintained in complete DMEM media, comprising DMEM with 4.5 g/L glucose, 10% FBS (Gemini Bio-Products, West Sacramento, CA), 2 mM Glutamine (Lonza) and 20 mM HEPES (Lonza), hereafter complete DMEM.
# The RNAi screen was conducted in 384-well format using the Ambion Silencer Mouse Genome siRNA Library (#4391425), which consists of three unique, nonoverlapping, nonpooled siRNAs for each of 17,000 gene targets. siRNA reagents ([…]) were stamped into 384-well white flat-bottom microplates (Corning, 3570) using a Velocity11 VPrep liquid handling system (Agilent) integrated into a BioCel robotic platform (Agilent) in columns 1-22, leaving columns 23-24 empty for negative (Ambion, Negative control #1) and positive (mouse Casp4) controls, respectively. The median value of each plate's negative control column was used to normalize sample wells, and the positive control was used to assess transfection efficiency and assay performance.
# Lipofectamine RNAiMAX Transfection Reagent ([…]; Invitrogen) was added in […] serum-free, antibiotic-free media to plate wells using a Thermo Scientific Matrix WellMate and Microplate Stacker. Plates were incubated for 45 min at room temperature to allow for the sufficient formation of siRNA-lipid complexes. Cells were seeded at a density of 1x10^4 cells per well in 20 microL media containing 20% (vol/vol) FBS without antibiotics. The final concentration of siRNA in each well was 100 nM. Cells were cultured for 48h at 37 degrees C in 5% CO2 before addition of […] of TLR ligand Pam3CSK4 for 5 hours. The medium was then removed, replaced with […] growth media and cell were transfected with […] of LipidA and TransIT-TKO (Mirus) for 24 hour. At the end of the LipidA treatment, […] of supernatant was transferred to a 384 Greiner Bio-one non-binding low volume plate and […] of IL-1a HTRF reagent (Cisbio, 62MIL1APEH) was added and incubated at room temperature overnight. The plates were read on an EnVision plate reader (PerkinElmer). Cell viability was measured by adding 20ul Cell Titer Glo to the original plate and running a luminescence read on the EnVision. The quantified IL-1a signal for each siRNA gene-targeted well was divided by the median of the negative control wells and multiplied by 100 to achieve a negative control normalized value for each well/siRNA. This normalized value was then used to generate a robust z-score by first taking the log of each value and then by subtracting the median and dividing by the […].
row,Sequence,z-score
1,GGAACAAAGUGUUUAAAACTT against Ptprj,inactive: 0.717
2,GGAUGUCCUGGAAUAUGUGTT against Mrpl45,inactive: 0.0662
3,CCACAUUUCUAGUUGUUUATT against Olfr1151,inactive: -1.77
4,GGGCAGAGUGAUGUUGUCATT against Gsdmd,active: -3.34
5,GGAAAAAAUCAGGAGAUCUTT against Fbxo34,inactive: -0.124
6,AUUUCUGUAAGGCAAAUGUTT against Olfr970,inactive: -0.454
7,GGACAUGGUUUAGGUUAGATT against Zxda,inactive: 1.08
8,GCUCUUAGAAUCAUCGUCCTT against Ctbp1,inactive: 0.528
9,CCUAGCAAUGUAGUAUCUATT against Snap23,inactive: -0.406
10,GGUAUUAGAAAUCCUGAUCTT against Pias2,inactive: -0.716
11,GGAUGGACCAAAGAGAUAUTT against Ldb1,inactive: -0.34
12,GGUCAAGAGUGCAUUCAAATT against Olfr1445,inactive: 0.266
13,GGUGUGUGGCCAGAAAGUUTT against Sfi1,active: -2.83
14,GGGAACCUGUUUUCUUUCUTT against Nudt3,inactive: 1.21
15,GGAAAGUCACAACACUUCCTT against Lamp5,inactive: -0.923
16,GCUAGCUCGUGUGAUGUUUTT against Twnk,inactive: -0.933
17,GCAGCAGUUGGCUAAAACATT against Bbof1,inactive: -1.14
18,GCAUGCUUGGAACAUUCCGTT against Ctnna3,inactive: 0.518
19,GGGACUUGGGACUUGUGGATT against Saa4,inactive: 0.328
20,GCAAUGUAACCCUGAAAAUTT against Cd48,inactive: -1.03
21,GAGAGAGACAAUCCUGAAGTT against Klra22,inactive: -0.0539
22,ACUGUUUAAUCACUGUGGUTT against Olfr891,inactive: -0.994
23,CGUAAAGGAACACUCUCGGTT against Eif3i,inactive: -0.218

row,Sequence,z-score
1,GGAGCAAUGUUGUCACAACTT against Fbln1,inactive: 0.483
2,GGUCGUAUAUAAUUUGAUGTT against Nnt,inactive: 0.208
3,GGAAAGGUGCUUUUCAAAATT against Nedd9,inactive: 0.625
4,GCUCGUCAUUGAAAUAGUGTT against Igtp,inactive: 0.274
5,GGAAGAAUCCUCCAUGGAGTT against Mrpl24,inactive: 1.35
6,GGGAUUGAACAGUUAUGUATT against Sub1,inactive: -0.662
7,GGAUUCUUCUUCCACUUUGTT against Fbxo46,inactive: -0.0241
8,GGAAAGAAGAAGAGUCUAATT against Nucb2,inactive: 0.994
9,GCACUUUGUGCUAGAUGAATT against Ddx39a,inactive: -0.688
10,GCACACCUCUAGUGGACUUTT against Taf10,inactive: -1.13
11,GGGAAGUGGGAUUCCUAAGTT against Fam220a,inactive: 0.218
12,GGAAGUGUUAAAUCCUGCUTT against Rnaseh1,inactive: -0.459
13,CCUUGUAUGGAAUUUAAAGTT against Rbm6,inactive: 0.65
14,GGGUGUCACAAAAUAAAAUTT against Sigirr,inactive: -0.245
15,GGAAGUUGAGAGCUUAAAGTT against Pank3,inactive: -0.177
16,GAGCACAGUGCACGACCAATT against Mcfd2,inactive: -0.532
17,GGUGAAAUUUUAUGAAGAGTT against Grk3,inactive: -0.342
18,AGCCACUUAUGUUAAUAAATT against Pcbd2,inactive: -0.115
19,CGAGGCACUUCUCACUCAUTT against Cyp2c54,inactive: 1.43
20,GGUUCAGAACAAAAUCUACTT against Cd209d,inactive: 0.264
21,GGCUAAUGUGCUUUCCCAUTT against Olfr643,inactive: -0.0609
22,GGAAACAUAACCUUCAAUGTT against Wdr3,inactive: 1.13
23,GGCCACUCGUUUUCUAAUUTT against Ccdc71l,inactive: 0.407

# A run of entries from further up, for reference:
row,Sequence,z-score
11,GGGAAGUGGGAUUCCUAAGTT against Fam220a,inactive: 0.218
12,GGAAGUGUUAAAUCCUGCUTT against Rnaseh1,inactive: -0.459
13,CCUUGUAUGGAAUUUAAAGTT against Rbm6,inactive: 0.65
14,GGGUGUCACAAAAUAAAAUTT against Sigirr,inactive: -0.245

# Continuation.

row,Sequence,z-score
1,GGAAAUCUACAUCAUGGCUTT against Ift140,active: -2
2,AGACCACAGUUAGCAGUGGTT against Pdcd2l,inactive: -1.58
3,GGAGAUUGUUGACCUGGUCTT against Tuba3b,active: 2.03
4,UUUUUUUACUCAGUCCUCATT against Olfr538,inactive: -0.728
5,GGGACUUUCGUAAUAAACCTT against Lman1,inactive: -1.26
6,GGAGAUCAAAAACAGCUUUTT against Tob1,inactive: -0.596
7,GCAAAUGAGAGGUCUGUUGTT against Olfr1024,active: -2.52
8,GGGUGACAUCAUGACAGUGTT against Bcar1,inactive: 0.763
9,GACUUAUAUUCCUCCAUCUTT against E330013P04Rik,inactive: 0.829
10,GGUCAAGCCUUCCUUUUCUTT against Cldn23,inactive: -0.908
11,GUGUAGUGAUCAAUAGAUCTT against LOC432823,inactive: 0.821
12,CGACUGUGGAAGGUUUGGUTT against Rubcn,inactive: -0.297
13,CCAGAAUUGUUGUUUAUUCTT against Rbbp4,inactive: -0.93
14,GCCCUUUUGCCUCUGAACUTT against Capg,inactive: -0.407
15,GAGACAAUGCAGCAAAAUCTT against Gm839,inactive: -1.13
16,CGAACCUACAGAGCUCAUGTT against Rpl17,inactive: 0.948
17,CGGUCUGUGAAAGAUGCAGTT against Chmp3,inactive: -0.033
18,GGAACUAACGGAAUUACUGTT against Arl3,inactive: 0.951
19,GGAUGAAGGUGCUUUUAAATT against Gnrhr,inactive: -0.917
20,GGUACAACUGCUCAUUUUUTT against Rhbdd1,inactive: -0.0082
21,GGCAAUCAGAUCAUUUACATT against Olfml1,inactive: -0.0595
22,CGGGCAUAUUGAUGUUAAATT against Fech,inactive: 1.09
